T/C and survivor count data for 25 compounds are collected here from PubChem BioAssay AID330 (DTP/NCI, 2004).

The list does not hold the whole screen: it gathers tests that were run many times, whatever their T/C, doses with no T/C, and many T/C values between a quarter and a half above the control. Other doses and runs of a compound stand elsewhere. T/C: endpoint of the treated group in % of that of the vehicle group. Some entries give survivors of the animals treated and no T/C: the source holds a T/C of zero for them, seemingly a mark for toxic or unscored doses. Some doses without a T/C left all or most animals alive at the check, yet need not have been tolerated: survival well below the control is almost never listed, so the zero probably covers shortened survival too. Survivors were counted at the toxicity check, usually on the fifth day, unless a day is given; later deaths do not show. Schedules are NCI's codes, taken here to give the interval after Q, in days (D) or hours (H), and the number of doses after X. Some entries were tested several times; the values are given in rising order. Where survival is the endpoint, this PubChem deposit counts one and a half times the control or more as active, and values a quarter to a half above the control carry no call in these data; other NCI protocols may use other cut-offs. Marks such as (2×) say how often a value occurs here. Some T/C values carry the count of animals alive at the toxicity check (mostly the fifth day); without a count, all were alive then.

The test system of this assay is P388 leukemia ip, CD2F1 mice, survival T/C. As to the kind of experiment: NCI In Vivo Anticancer Drug Screen. Data for tumor model P388 Leukemia (intraperitoneal) in CD2F1 (CDF1) mice. The note with it: T/C endpoint: median survival time, higher T/C = longer survival.
Setting [1] is: dose: 3.12 mg/kg/injection, schedule: Q01DX009 (ip), vehicle: Klucel (hydroxypropylcellulose) (HPC).
[2] abbreviates: dose: 6.25 mg/kg/injection, schedule: Q01DX009 (ip), vehicle: Klucel (hydroxypropylcellulose) (HPC).
The mark [3] stands for this setting: dose: 12.5 mg/kg/injection, schedule: Q01DX009 (ip), vehicle: Klucel (hydroxypropylcellulose) (HPC).
[4] abbreviates: dose: 25.0 mg/kg/injection, schedule: Q01DX009 (ip), vehicle: Klucel (hydroxypropylcellulose) (HPC).
[5] abbreviates: dose: 50.0 mg/kg/injection, schedule: Q01DX009 (ip), vehicle: Klucel (hydroxypropylcellulose) (HPC).
[6] abbreviates: dose: 100.0 mg/kg/injection, schedule: Q01DX009 (ip), vehicle: Klucel (hydroxypropylcellulose) (HPC).
The mark [7] stands for this setting: dose: 200.0 mg/kg/injection, schedule: Q01DX009 (ip), vehicle: Klucel (hydroxypropylcellulose) (HPC).
Where [8] appears, read: dose: 120.0 mg/kg/injection, schedule: Q01DX005 (ip), vehicle: saline with Tween-80.
[9] abbreviates: dose: 240.0 mg/kg/injection, schedule: Q01DX005 (ip), vehicle: saline with Tween-80.
[10] abbreviates: dose: 200.0 mg/kg/injection, schedule: Q01DX009 (ip), vehicle: saline.
The mark [11] stands for this setting: dose: 1.56 mg/kg/injection, schedule: Q01DX009 (ip), vehicle: saline.
[12] abbreviates: dose: 6.25 mg/kg/injection, schedule: Q01DX009 (ip), vehicle: saline.

Turning to `c1ccc([P+](c2ccccc2)(c2ccccc2)c2ccccc2)cc1`, the T/C runs as follows: (dose: 5.0 mg/kg/injection, schedule: Q04DX003 (ip), vehicle: saline) 136 and 140 % of control; (dose: 7.5 mg/kg/injection, schedule: Q04DX003 (ip), vehicle: saline) 147 % of control. Further, the survivor count (dose: 10.0 mg/kg/injection, schedule: Q04DX003 (ip), vehicle: saline) is 6 of 6.

On to `CCC(C)([N+](=O)[O-])[N+](=O)[O-]`, for which the survivor count is reported as 6 of 6 (dose: 1.56 mg/kg/injection, schedule: Q01DX009 (ip), vehicle: Klucel (hydroxypropylcellulose) (HPC)); 0 of 6 under setting [1]; 0 of 6 under setting [2]; 0 of 6 under setting [3]; 0 of 6 under setting [4]; 0 of 6 under setting [5]. The survivor count runs as follows: under setting [6], 0 of 6; under setting [7], 0 of 6.

In the case of `O=c1oc2ccccc2c(O)c1C(c1ccc2c(c1)OCO2)c1c(O)c2ccccc2oc1=O`, the survivor count by setting is: (dose: 60.0 mg/kg/injection, schedule: Q01DX005 (ip), vehicle: saline with Tween-80) 4 of 6 and 6 of 6; under setting [8], 3 of 6; under setting [9], 0 of 6.

For `COc1cc2ccnc(CCCc3nccc4cc(OC)c(OC)cc34)c2cc1OC`, the survivor count runs as follows: (dose: 200.0 mg/kg/injection, schedule: Q04DX002 (ip), vehicle: Klucel (hydroxypropylcellulose) (HPC)) 1 of 6; (dose: 400.0 mg/kg/injection, schedule: Q04DX002 (ip), vehicle: Klucel (hydroxypropylcellulose) (HPC)) 0 of 6.

Consider `NCCCNCCCNc1nc2nc(N)nc(N)c2nc1-c1ccc([N+](=O)[O-])cc1`, for which the survivor count by setting is: (dose: 100.0 mg/kg/injection, schedule: Q01DX005 (ip), vehicle: saline with Tween-80) 0 of 6; (dose: 200.0 mg/kg/injection, schedule: Q01DX005 (ip), vehicle: saline with Tween-80) 0 of 6.

In the case of `COc1cc2c(c(C(C)(C)C)c1)OC1(O)C2=CC(=O)C=C1C(C)(C)C` (centres undefined), for the setting “dose: 200.0 mg/kg/injection, schedule: Q01DX005 (ip), vehicle: Klucel (hydroxypropylcellulose) (HPC)”, the survivor count is recorded as 0 of 6.

`[Cl][Pt+2][Cl].[NH-]c1ccc(S(=O)(=O)O)cc1[NH-]`: the T/C (dose: 100.0 mg/kg/injection, schedule: Q04DX002 (ip), vehicle: saline with Tween-80) is 143 % of control.

With `CN1CCN(C)C(=O)C1=O`, the survivor count is listed as 2 of 6 (dose: 100.0 mg/kg/injection, schedule: Q04DX003 (ip), vehicle: suspension in saline); 0 of 6 (dose: 200.0 mg/kg/injection, schedule: Q04DX003 (ip), vehicle: suspension in saline); 0 of 6 (dose: 400.0 mg/kg/injection, schedule: Q04DX003 (ip), vehicle: suspension in saline).

As to `CCOC(=O)/C(=N\N=P(N(C)C)(N(C)C)N(C)C)[As](C)C`, the survivor count under setting [10] is given as 0 of 6.

With `Cc1cc(C)c(F)[c]([Hg][Br])c1N`, the survivor count is, setting by setting: (dose: 3.12 mg/kg/injection, schedule: Q01DX005 (ip), vehicle: Klucel (hydroxypropylcellulose) (HPC)) 6 of 6; (dose: 12.5 mg/kg/injection, schedule: Q01DX005 (ip), vehicle: Klucel (hydroxypropylcellulose) (HPC)) 2 of 6; (dose: 25.0 mg/kg/injection, schedule: Q01DX005 (ip), vehicle: Klucel (hydroxypropylcellulose) (HPC)) 0 of 6.

`CCCCC/C(=C\c1ccccc1)C1OCC(COCC)O1` (centres undefined): the survivor count (dose: 400.0 mg/kg/injection, schedule: Q01DX009 (ip), vehicle: saline + Tween-80 + alcohol) is on record as 3 of 6.

In the case of `CCCCCCCCCCCCCCCCCC[N+]1(CC)CCCC1`, the survivor count reads like this: (dose: 50.0 mg/kg/injection, schedule: Q01DX009 (ip), vehicle: saline) 0 of 6; (dose: 100.0 mg/kg/injection, schedule: Q01DX009 (ip), vehicle: saline) 0 of 6; under setting [10], 0 of 6.

Regarding `O=S1C2CCC(Cl)C1CCC2Cl` (centres undefined), the survivor count under setting [1] is listed as 0 of 6; the survivor count under setting [2] is 0 of 6; the survivor count under setting [3] is reported as 0 of 6; the survivor count under setting [4] is given as 0 of 6; the survivor count under setting [5] is 0 of 6; the survivor count under setting [6] is recorded as 0 of 6. Also, the survivor count under setting [7] was 0 of 6.

As to `N#Cc1cn(C2OC(CO)C(O)C2O)c2ncnc(Cl)c12` (centres undefined), the T/C (dose: 15.0 mg/kg/injection, schedule: Q01DX005 (ip), vehicle: saline with Tween-80) was 147 % of control; the T/C (dose: 30.0 mg/kg/injection, schedule: Q01DX005 (ip), vehicle: saline with Tween-80) is 147 % of control; the T/C under setting [8] is 149 % of control. The survivor count under setting [9] is listed as 6 of 6.

Consider `CCCCC(CCCCCC(CCCC)NCc1ccc2c(c1)OCO2)NCc1ccc2c(c1)OCO2` (centres undefined), for which the survivor count by setting is: under setting [4], 6 of 6; under setting [5], 5 of 6.

For `O=C1CSc2ccccc2N1`, the survivor count under setting [6] is recorded as 5 of 6.

On to `CN(C)c1ccc2nc3ccc(=N)cc-3sc2c1`, for which the survivor count (dose: 240.0 mg/kg/injection, schedule: Q01DX005 (ip), vehicle: saline) was 0 of 6.

For the compound `S=C1NCCOc2ccccc21`, the survivor count (dose: 240.0 mg/kg/injection, schedule: Q01DX005 (ip), vehicle: Klucel (hydroxypropylcellulose) (HPC)) is listed as 1 of 6.

For `Cn1c(N)c(C(=O)c2ccccc2)c(=O)n(C)c1=O`, the survivor count was 6 of 6 under setting [5], 2 of 6 under setting [6] and 1 of 6 under setting [7].

For the compound `COc1ccc(CC(N)C(=O)OCc2ccccc2)cc1N(CCCl)CCCl` (centres undefined), the T/C is 97, 98 [5 of 6 alive], 100, 107 % of control under setting [11]; 94, 98, 101, 104 % of control (2×) (dose: 3.12 mg/kg/injection, schedule: Q01DX009 (ip), vehicle: saline); 96, 97, 100, 104 % of control under setting [12]; 97, 98, 101, 103, 108 % of control (dose: 12.5 mg/kg/injection, schedule: Q01DX009 (ip), vehicle: saline); 148 % of control [5 of 6 alive] (dose: 12.5 mg/kg/injection, schedule: Q01DX009 (ip), vehicle: suspension in saline). Besides, the survivor count is on record as 5 of 6 under setting [11] and 6 of 6 under setting [12].

`COC(=O)c1ccc(SCCC(=O)CCl)cc1`: the survivor count (dose: 200.0 mg/kg/injection, schedule: Q01DX009 (ip), vehicle: saline with Tween-80) is 2 of 6.

Take `COC(=O)/C=C(\NC1CC(OC2C[C@](O)(C(C)=O)Cc3c(O)c4c(c(O)c32)C(=O)c2c(OC)cccc2C4=O)OC(C)C1O)C(=O)OC` (some centres undefined): the T/C was 138 % of control (dose: 25.0 mg/kg/injection, schedule: Q04DX003 (ip), vehicle: saline with Tween-80); 147 and 148 % of control (dose: 50.0 mg/kg/injection, schedule: Q04DX003 (ip), vehicle: saline with Tween-80).

In the case of `O=C(Cc1nc2ccc(Cl)cc2nc1CC(=O)c1ccccc1)c1ccccc1`, the survivor count is listed as 1 of 6 under setting [8] and 2 of 6 under setting [9].

For the compound `COc1cc(Oc2c(C)c(Cl)c(OC)c(Cl)c2OC)c2c(c1Cl)COC2=O`, the survivor count (dose: 60.0 mg/kg/injection, schedule: Q01DX005 (ip), vehicle: Klucel (hydroxypropylcellulose) (HPC)) is listed as 6 of 6.

As for `N#CN=[N+]([O-])c1ccccc1Br`, the survivor count (dose: 50.0 mg/kg/injection, schedule: Q04DX003 (ip), vehicle: Klucel (hydroxypropylcellulose) (HPC)) is 6 of 6.
